1 molecule from patent publication US20170051280A1 can be followed below.

The target of the test is T1, p22phox in mouse retina (p47phox-/- and wild type mice, p17 OIR) (mouse) (UniProt Q61462).
T1 sequence (looked up): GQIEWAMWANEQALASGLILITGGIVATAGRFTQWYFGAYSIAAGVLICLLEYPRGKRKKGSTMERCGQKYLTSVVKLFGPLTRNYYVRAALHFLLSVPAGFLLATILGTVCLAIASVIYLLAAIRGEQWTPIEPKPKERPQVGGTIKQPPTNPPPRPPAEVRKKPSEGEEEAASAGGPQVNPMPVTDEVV
As to the kind of experiment: co-immunoprecipitation from mouse retina (p47phox-/- vs WT, p17 OIR), figure legend FIG. 10A.

Results are given in words; binding and its absence hold for the method and conditions named. In cells and extracts the contact can be indirect. Some results given as binding are weak or reduced against the parent protein; the word gives no strength.

B1: NOX4 in mouse retina (p47phox-/- and wild type mice, p17 OIR) (enzyme, UniProt Q9JHI8 1-578, looked up)
chain: MAVSWRSWLANEGVKHLCLLIWLSLNVLLFWKTFLLYNQGPEYYYIHQMLGLGLCLSRASASVLNLNCSLILLPMCRTVLAYLRGSQKVPSRRTRRLLDKSKTLHITCGVTICIFSGVHVAAHLVNALNFSVNYSEDFLELNAARYQNEDPRKLLFTTIPGLTGVCMVVVLFLMVTASTYAIRVSNYDIFWYTHNLFFVFYMLLLLHVSGGLLKYQTNVDTHPPGCISLNQTSSQNMSIPDYVSEHFHGSLPRGFSKLEDRYQKTLVKICLEEPKFQAHFPQTWIWISGPLCLYCAERLYRCIRSNKPVTIISVINHPSDVMELRMIKENFKARPGQYIILHCPSVSALENHPFTLTMCPTETKATFGVHFKVVGDWTERFRDLLLPPSSQDSEILPFIHSRNYPKLYIDGPFGSPFEESLNYEVSLCVAGGIGVTPFASILNTLLDDWKPYKLRRLYFIWVCRDIQSFQWFADLLCVLHNKFWQENRPDFVNIQLYLSQTDGIQKIIGEKYHTLNSRLFIGRPRWKLLFDEIAKCNRGKTVGVFCCGPSSISKTLHSLSNRNNSYGTKFEYNKESFS
B1: the binding result is on record as “binds”.
